# Primary screen of a compound library

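Whole-cell assay for inhibitors of Mycobacterium tuberculosis growth, labelled Cornell in the record; the read-out is not stated. The concentration is filed as 10 mM, unlikely as a test dose, so the dose is not known. The record gives no direction; compounds strong in two other growth screens of this library score well above the rest, so higher reads as stronger inhibition. About 53,000 compounds were tested under these conditions; 1.7% (about 900) showed 50% or more at least once.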

Results are given as percent effect. The record does not define 0% and 100%; most values in the screen are far below 50% and negative numbers occur (in some assays of this library far below -100). Compounds were drawn at random from those tested, without regard to their results.

structure	effect
CC(=O)N1CCC(NC(=O)NCc2ncc(-c3ccccc3)o2)CC1	16.36%
OCCN1CCC(CNCc2cn(-c3ccccc3)nn2)CC1	-10.81%
Cn1cnc(S(=O)(=O)N2CCCC2c2ccnc3nccn23)c1 (stereo not drawn)	18.56%
CCc1nc2c(c(NC3CC3)n1)CCN(C(=O)N1CCN(C)CC1)CC2	-2.266%
Cc1ccc(S(N)(=O)=O)cc1C(=O)NCC1Cc2ccccc2O1 (stereo not drawn)	18.03%
CNC(=O)c1ccc(C2CN(C(=O)c3c[nH]nc3C)CCO2)nc1 (stereo not drawn)	-45.88%
Cc1cc(C)nc(N2CCC(Cn3cc(C(N)=O)cn3)CC2)n1	-23.62%
CCC(C)N(Cc1ccncc1)C(=O)CCC(=O)OC (stereo not drawn)	14.52%
Cc1ccnc(C2(C)CCCN2S(=O)(=O)c2c(C)noc2C)n1 (stereo not drawn)	5.567%
[H][C@@]1([C@H](C)C(=O)NCCOC)CCc2c(C)cc(OCC(=O)O)c(C)c2C1	-13.45%
COC(C)(C)CNC(=O)c1cn(-c2cccc(Cl)c2F)nn1	28.04%
Cc1ccc(CNCc2cccc3cn[nH]c23)c(OC2CCOC2)c1 (stereo not drawn)	31.88%
O=C(O)C(F)(F)F.O=C(O)C(F)(F)F.[H][C@@]12CCN(CC3CCOCC3)C[C@]1(COc1ncccc1F)CCO2	6.885%
Cc1ccc(-c2nc(CC(=O)NCC3CCCN(C(C)C)C3)cs2)o1 (stereo not drawn)	0.2566%
[H][C@@]12CCN(C(=O)c3cc(C)on3)C[C@]1(c1nc(C)no1)CCO2	21.14%
COc1c[nH]c(C(=O)N2CCN(c3ccccc3)CC2)cc1=O	-9.19%
COCCN1CCC2(CCCN(Cc3ccoc3)C2)C1=O.O=C(O)C(F)(F)F (stereo not drawn)	-14.76%
Cc1ccc(C)c2c(O)cc(CN3CCC(c4nncn4C)CC3)nc12	8.407%
O=C(NCC1(O)CCc2ccccc2C1)c1cccs1 (stereo not drawn)	0.308%
CCc1cnc(NCCCOC2CCCC2)nc1	8.771%
CC(C)N(C)Cc1nnn2c1CN(Cc1cccnc1)CCC2.O=C(O)C(F)(F)F.O=C(O)C(F)(F)F.O=C(O)C(F)(F)F	4.48%
Cc1nsc(NC(=O)N2CCCCC2CCO)n1 (stereo not drawn)	-20.68%
Cn1cnc2c(-c3cccnc3)nc(C3CCN(S(C)(=O)=O)CC3)cc21	-1.689%
OC(c1ccccn1)C1CCN(Cc2cc3n(n2)CCCNC3)CC1 (stereo not drawn)	5.16%
CNC(=O)c1sc2ncccc2c1C1CCN(C(=O)CCOC)C1 (stereo not drawn)	-20.14%
Cc1cc(NC(=O)c2nn(C3CCS(=O)(=O)C3)c3c2CCCC3)no1 (stereo not drawn)	8.842%
Cc1n[nH]c(C)c1C1COCCN1C(=O)Cc1ccccc1F (stereo not drawn)	-12.78%
Cc1ncc(CNC(=O)CCOc2ccccc2)c(C2CCCN2C)n1 (stereo not drawn)	-3.04%
CCN(CC)CCn1cc(NC2CCN(C(C)(C)C)CC2)cn1	-8.107%
COc1ccc(CNCc2ccnc(N3CCCCC3)c2)cc1OC	9.014%
CC(C)CNc1nccc(-c2cnc3sc(Cl)cn3c2=O)n1	-4.011%
CCNC(=O)c1ccc(NC2CCOC3(CCCCC3)C2)nn1 (stereo not drawn)	-8.631%
CCOCC(=O)NCCC(O)c1ccoc1 (stereo not drawn)	16.88%
COc1cccc2ccc(CN3CCN(c4ncccc4C)CC3)nc12	28.67%
[H][C@@]12CCN(c3ncccn3)[C@]1([H])CC[C@H](C(=O)NC)O2	-21.46%
Cc1c(C(C)NC(=O)Nc2ccc(F)cc2F)cnn1C (stereo not drawn)	-36.24%
O=c1ncn(-c2ccccc2F)c2ncccc12	2.739%
CC(NCCCN1CCCC1=O)c1cc(Br)ccc1O (stereo not drawn)	18.67%
Cc1cc(CN2CCC(CNS(=O)(=O)c3ccccc3F)CC2)c(C)o1	14.8%
COc1ccnc(N2CCN(C(=O)CCc3cnn(C)c3)CC2)n1	-12.4%
COCc1ncc(CN2CC(Oc3c(C)cccc3C)C2)cn1	16.14%
Clc1ccc(-c2c[nH]c([C@@H]3COCCN3)n2)cc1	-6.397%
CC(C)N(C)S(=O)(=O)N(C)Cc1ccc2c(c1)OCO2	-6.095%
CC(C)(C)c1cnc(CN2CCN(c3ncccn3)CC2)o1	-6.535%
[H][C@]12CCN(S(=O)(=O)Cc3ccccc3)[C@@]1([H])CC[C@@H](COCC)O2	11.36%
CS(=O)(=O)N1Cc2nccn2CC(CNC(=O)c2cccnc2)C1.O=C(O)C(F)(F)F (stereo not drawn)	15.92%
Cc1ccc(CN2CCN(C3CSCCSC3)CC2CCO)o1 (stereo not drawn)	3.355%
CCS(=O)(=O)NCC(Cc1cccc(F)c1)N1CCNC1=O (stereo not drawn)	18.18%
COCCC(=O)N1CCC2(CCCN2Cc2ccccc2)C1 (stereo not drawn)	-11.35%
[H][C@@]12COC[C@@H](Cc3nnc(C)o3)[C@]1([H])CN(c1cc(OC)ncn1)C2	8.82%
COC(=O)c1cccc2nc([C@H]3CCN(CC(C)C)C3)oc12	10.84%
Cc1noc(CCCC(=O)NCCc2cc3ccccc3[nH]2)n1	55.01%
CCN(CC)Cc1nc2c(o1)CN(C(=O)c1ccc3[nH]ccc3c1)C2.O=CO	-30.31%
O=C(O)C(F)(F)F.[H][C@@]12C[C@H](C(=O)NC)[C@@]([H])(CN(Cc3ccccc3)C1)O2	10.54%
CCc1nnc2n1CCN(C(=O)C(C)COCc1ccccc1)C2 (stereo not drawn)	-2.01%
Cc1ccc(CCC(=O)N2CCn3c(nnc3C(C)C)C2)cc1Cl	-11.43%
CC(C)Nc1nc(N2CCCC2)nc2c1CN(C(C)C)CC2	61.73%
CCOC(=O)CCC(=O)N1CCC(Oc2ccc(C(F)(F)F)cn2)CC1	24.3%
Cc1c(C(=O)N(C)C)cccc1N(C)S(C)(=O)=O	6.261%
Cn1ccnc1CN(Cc1cccnc1)CC1CCCO1 (stereo not drawn)	-14.23%
Cc1nn(C)c2c(NC3CCCC3)nc(C3CC3)nc12	31.2%
COc1ccc(CC2CCCN2CCCC#N)cc1 (stereo not drawn)	-22.37%
CCOC(=O)NCc1nn(CCN2CCCC2)c(=O)c2ccccc12	-8.166%
CC[C@H]1CN(C(=O)c2cnc(N3CCN(C)CC3)nc2C)CC[C@@]1(C)O	11.16%
CC(CCNC(=O)NCCNc1cnccn1)c1ccccc1 (stereo not drawn)	12.5%
O=C(O)C(F)(F)F.O=C(c1cnccn1)N1CCCC2(CCN(Cc3ccsc3)CC2)C1	19.01%
CC(C)CS(=O)(=O)CC(=O)NC(C)(C)c1cccc(F)c1	14.98%
CN(C)C(=O)NCc1ncn2c1CN(Cc1cccs1)CCC2.O=C(O)C(F)(F)F.O=C(O)C(F)(F)F	-30.01%
CC(C1CCN(C(=O)c2coc(CN3CCOCC3)c2)CC1)N(C)C (stereo not drawn)	-9.074%
O=C(c1cnc(Nc2ccccc2)nc1)N1CCCC2(CCNC2)C1 (stereo not drawn)	-16.79%
COc1ccc(C[C@H]2CNCC[C@H]2OC)cc1.O=C(O)C(F)(F)F	31.09%
Cc1ccc(CN2CCC3(CC2)COCCN3S(C)(=O)=O)o1.O=C(O)C(F)(F)F	9.585%
CC[C@H](C)Nc1nccc(-c2cnc3sccn3c2=O)n1	-1.989%

Repeated from the top, 5 entries:

| structure | effect |
|---|---|
| `CC(=O)N1CCC(NC(=O)NCc2ncc(-c3ccccc3)o2)CC1` | 16.36% |
| `OCCN1CCC(CNCc2cn(-c3ccccc3)nn2)CC1` | -10.81% |
| `Cn1cnc(S(=O)(=O)N2CCCC2c2ccnc3nccn23)c1` (stereo not drawn) | 18.56% |
| `CCc1nc2c(c(NC3CC3)n1)CCN(C(=O)N1CCN(C)CC1)CC2` | -2.266% |
| `Cc1ccc(S(N)(=O)=O)cc1C(=O)NCC1Cc2ccccc2O1` (stereo not drawn) | 18.03% |

From ChEMBL document CHEMBL3988442, “University of Dundee, Small-Polar-MMV Screening Library” (2021).